Source: paper PMC10163288
This is one part of the list.

B1: il10ra_site1_sap_17_mot_HHH_b1_06348_000000162_0001_1_15_H_._HHH_b2_06921_0001_0000200013_0000001_0_0001_af2pred_0001 (protein)
chain: SSSSSSEEQDERSVRNLLEAAKRVPDPERARKSLHFAKHLVEAANDEELKELVERAEEELSSSSS
B2: il10ra_site1_sap_15_mot_HHH_b2_00093_af2_000000025_0001_40_54_H_._HHH_b1_03548_0001_0000100008_0000001_0_0001 (protein)
chain: SSSSSDQELIEEAEELAEEAIEKADNRAARFLLRQALEALRLTGDPKAAEILFNLARIVLSSSSS
B3: il10ra_site1_normal_mot_HHH_b2_02337_000000026_0001_38_52_H_._HHH_b2_03376_af2_0001_0000200015_0000001_0 (protein)
chain: SSSSSSEEERLEELLKEVEELLEKGDYREASRVAAELLRLAYRLSDPEVLRALWRLVRSISSSSS
B4: il10ra_site1_normal_mot_HHH_b1_03613_af2_000000245_0001_1_20_H_._HHH_b2_02982_0001_0000100004_0000001_0 (protein)
chain: SSSSDEAYELTRRAIEEAIELFREGNREEAEELLQEVLREVRELGNTAAEFSLEHLLRALSSSSS
B5: il10ra_site1_normal_mot_HHH_b2_03220_af2_000000223_0001_23_40_H_._HHH_b2_06428_af2_0001_0000100006_0000001_0 (protein)
chain: SSSSSDEEELERLKEELEEAVERGDTELVWRLLRELLELAFELNDEEAFEVVLRVARRFSSSSSS
B6: il10ra_site1_sap_18_mot_HHH_b2_02497_000000141_0001_1_20_H_._HHH_b1_00975_0001_0000100001_0000002_0_0001 (protein)
chain: SSSSDKEEELEKLLEELERLVEEGDREEFLELAQEVLRLAIQLNDEEALRLLWRLLHEVASSSSS
B7: il10ra_site1_normal_mot_8756ee2cf497b5429c717dfc0c0bcfd6_0001_000000186_0001_1_13_H_._HHH_b1_03955_af2_0001_0000100005_0000002_0_af2pred_0001 (protein)
chain: SSSSSEELKELIELIRRVAELDSEGNPEEARRLLEEAQKLAEELGDTTAEAQLRFLEEILNSSSS
B8: il10ra_site1_normal_mot_HHH_b1_05670_000000169_0001_1_19_H_._HHH_b2_02857_0001_0000400035_0000001_1 (protein)
chain: SSSSDEDYRRAKELIELIVELLREGNPEEAKKVLEELRELAEENNNPVLEWSVRLLEEDINSSSS
B9: il10ra_site1_normal_mot_HHH_b1_02997_000000220_0001_39_52_H_._HHH_b1_08382_0001_0000500028_0000001_0 (protein)
chain: SSSSSTEEVYELIRRAAELRYRGNPEEAEELLEEALRLAEELGNENFEFNIRYLLRQVRRSSSSS
B10: il10ra_site1_normal_mot_HHH_b1_03763_000000209_0001_22_38_H_._HHH_b2_00471_0001_0000100006_0000001_0 (protein)
chain: SSSSSSSEEEIEELLEEARHIPDAEERFRLLREAIELAVEAGDPELLKLIMEFIQELFSSSSSSS
B11: il10ra_site1_sap_24_mot_HHH_b2_00984_000000042_0001_1_20_H_._a9737a16b0b5168389c1a5856fbd9e1f_0001_0001_0000400005_0000001_0_0001_af2pred_0001 (protein)
chain: SSSSSSYAERLYRLSREAVELAREGNPEEARELLEEAEELARENNDLNLLAVIEYALEILSSSSS
B12: il10ra_site1_sap_18_mot_HHH_b2_05343_000000235_0001_19_35_H_._HHH_b1_08772_0001_0000100005_0000002_0_0001_af2pred_0001 (protein)
chain: SSSSSEEEERAEKLYEELRKLVEEGDRDEVRRVLHELIRLANSGKDQKAAELIREILQRLSSSSS
B13: il10ra_site1_sap_21_mot_HHH_b1_06914_000000280_0001_1_18_H_._HHH_b2_08153_0001_0000400035_0000001_0_0001 (protein)
chain: SSSSSREELREEVEEVIEELEEKNDTKLLHRLMELYKRAAELGDEELVREIFEVLLRIVQKSSSS
B14: il10ra_site1_normal_mot_HHH_b1_01779_000000096_0001_43_57_H_._HHH_b1_00260_0002_0000200013_0000001_0 (protein)
chain: SSSSDEEEEAVRRILESAERAEEVGDPEKARIALEFALALARAAGNPELEEKIRELLEELRSSSS
B15: il10ra_site1_normal_mot_HHH_b2_05813_000000266_0001_1_19_H_._HHH_b1_07280_0001_0000300014_0000002_0_af2pred_0001 (protein)
chain: SSSSDLEEIVFRLRVEARRLLQRGNPEEAERVLEEALEIAEEKGDPRLALAIRELIRRVQESSSS
B16: il10ra_site1_normal_mot_HHH_b1_05357_000000034_0001_23_39_H_._HHH_b2_04773_0001_0000200019_0000002_0_af2pred_0001 (protein)
chain: SSSSSSEEYEEEVKELLEQAKHIEDPKELTYVLIRAFALAVRGNDPELERLVEEVAIELSSSSSS
B17: il10ra_site1_sap_22_mot_1c3c3e46dde0d4e4be3ec3dd9add6289_0001_000000096_0001_34_50_H_._HHH_b1_02052_0001_0000100003_0000001_0_0001 (protein)
chain: SSSSDADELYRLIKEIIERIAEGDEERVEELLKELEELAKERNNWLAKMQLKFLEELLEQLSSSS
B18: il10ra_site1_sap_12_mot_HHH_b2_00440_af2_000000075_0001_42_56_H_._HHH_b1_03475_0001_0000400042_0000001_0_0001 (protein)
chain: SSSSSDEQEKALELSVEAFRLALRGDKEEARKVLEEAARLAEELGDERLLEQIERMLKTLSSSSS
B19: il10ra_site1_sap_19_mot_HHH_b1_03531_000000273_0001_41_54_H_._HHH_b1_01616_af2_0001_0000800032_0000003_0_0001 (protein)
chain: SSSDREEFAEAALKATQLALRLNDEETLQRLWRLIKRYAKEQDPELLEELEELVKELEEKYTSSS
B20: il10ra_site1_normal_mot_HHH_b2_04168_af2_000000050_0001_1_20_H_._HHH_b2_06044_0001_0000100016_0000001_0 (protein)
chain: SSSSADELFRRVKELLQEAIELHKNGNPEEAEKVLQEAEELVEKAGNENTLFVIRWLLELLSSSS
B21: il10ra_site1_sap_23_mot_HHH_b1_08629_000000017_0001_1_20_H_._HHH_b2_02587_af2_0001_0000100003_0000001_0_0001 (protein)
chain: SSSSADERFEKVKKLLQLLIELLEEGDEEKVEEVEEELRRLIEENNDWAARWSLEHLRRAYSSSS
B22: il10ra_site1_sap_14_mot_ems_3hM_3637_000000290_0001_1_19_H_._HHH_b1_03012_0001_0000200018_0000001_0_0001_af2pred_0001 (protein)
chain: SSSSSDAEKAAEFLLRAARRARKLGNEEKAKLALKFAIHLAKFAGNEELLEELEKLLEELGSSSS
B23: il10ra_site1_sap_21_mot_HHH_b1_04015_af2_000000074_0001_1_17_H_._3a8c9d8b51907fb311a13ef47c45c45e_0001_1_af2_0001_0000200008_0000001_1_0001 (protein)
chain: SSSSDDEKFAKLIQKAVRYAFQLGDEEALQEIWELAKLYGRHGDPEVLEELHRLLEELERRSSSS
B24: il10ra_site1_sap_16_mot_HHH_b2_07758_000000036_0001_41_55_H_._HHH_b2_03545_0001_0000200025_0000001_0_0001 (protein)
chain: SSSSSDEEERIEELLEELEKVLEEGDTERAVRIALEAVQLAIQNGDEEALQLVWKIFQNNSSSSS

Target: il10ra, Q13651
Test: yeast display titration

Apparent Kd, inactive:
B1 no binding seen
B2 no binding seen
B3 > 497 nM
B4 no binding seen
B5 no binding seen
B6 no binding seen
B7 no binding seen
B8 no binding seen
B9 no binding seen
B10 no binding seen
B11 no binding seen
B12 no binding seen
B13 no binding seen
B14 no binding seen
B15 no binding seen
B16 no binding seen
B17 no binding seen
B18 no binding seen
B19 no binding seen
B20 no binding seen
B21 no binding seen
B22 no binding seen
B23 no binding seen
B24 no binding seen

Retrieved one by one from the list above (two):
Apparent Kd, inactive:
B6 no binding seen
B1 no binding seen
